{
  "sequences": {"note": "By UniProt entry, the sequences of proteins in these tests, tags left out.", "UniProt Q03164, whole entry, looked up": "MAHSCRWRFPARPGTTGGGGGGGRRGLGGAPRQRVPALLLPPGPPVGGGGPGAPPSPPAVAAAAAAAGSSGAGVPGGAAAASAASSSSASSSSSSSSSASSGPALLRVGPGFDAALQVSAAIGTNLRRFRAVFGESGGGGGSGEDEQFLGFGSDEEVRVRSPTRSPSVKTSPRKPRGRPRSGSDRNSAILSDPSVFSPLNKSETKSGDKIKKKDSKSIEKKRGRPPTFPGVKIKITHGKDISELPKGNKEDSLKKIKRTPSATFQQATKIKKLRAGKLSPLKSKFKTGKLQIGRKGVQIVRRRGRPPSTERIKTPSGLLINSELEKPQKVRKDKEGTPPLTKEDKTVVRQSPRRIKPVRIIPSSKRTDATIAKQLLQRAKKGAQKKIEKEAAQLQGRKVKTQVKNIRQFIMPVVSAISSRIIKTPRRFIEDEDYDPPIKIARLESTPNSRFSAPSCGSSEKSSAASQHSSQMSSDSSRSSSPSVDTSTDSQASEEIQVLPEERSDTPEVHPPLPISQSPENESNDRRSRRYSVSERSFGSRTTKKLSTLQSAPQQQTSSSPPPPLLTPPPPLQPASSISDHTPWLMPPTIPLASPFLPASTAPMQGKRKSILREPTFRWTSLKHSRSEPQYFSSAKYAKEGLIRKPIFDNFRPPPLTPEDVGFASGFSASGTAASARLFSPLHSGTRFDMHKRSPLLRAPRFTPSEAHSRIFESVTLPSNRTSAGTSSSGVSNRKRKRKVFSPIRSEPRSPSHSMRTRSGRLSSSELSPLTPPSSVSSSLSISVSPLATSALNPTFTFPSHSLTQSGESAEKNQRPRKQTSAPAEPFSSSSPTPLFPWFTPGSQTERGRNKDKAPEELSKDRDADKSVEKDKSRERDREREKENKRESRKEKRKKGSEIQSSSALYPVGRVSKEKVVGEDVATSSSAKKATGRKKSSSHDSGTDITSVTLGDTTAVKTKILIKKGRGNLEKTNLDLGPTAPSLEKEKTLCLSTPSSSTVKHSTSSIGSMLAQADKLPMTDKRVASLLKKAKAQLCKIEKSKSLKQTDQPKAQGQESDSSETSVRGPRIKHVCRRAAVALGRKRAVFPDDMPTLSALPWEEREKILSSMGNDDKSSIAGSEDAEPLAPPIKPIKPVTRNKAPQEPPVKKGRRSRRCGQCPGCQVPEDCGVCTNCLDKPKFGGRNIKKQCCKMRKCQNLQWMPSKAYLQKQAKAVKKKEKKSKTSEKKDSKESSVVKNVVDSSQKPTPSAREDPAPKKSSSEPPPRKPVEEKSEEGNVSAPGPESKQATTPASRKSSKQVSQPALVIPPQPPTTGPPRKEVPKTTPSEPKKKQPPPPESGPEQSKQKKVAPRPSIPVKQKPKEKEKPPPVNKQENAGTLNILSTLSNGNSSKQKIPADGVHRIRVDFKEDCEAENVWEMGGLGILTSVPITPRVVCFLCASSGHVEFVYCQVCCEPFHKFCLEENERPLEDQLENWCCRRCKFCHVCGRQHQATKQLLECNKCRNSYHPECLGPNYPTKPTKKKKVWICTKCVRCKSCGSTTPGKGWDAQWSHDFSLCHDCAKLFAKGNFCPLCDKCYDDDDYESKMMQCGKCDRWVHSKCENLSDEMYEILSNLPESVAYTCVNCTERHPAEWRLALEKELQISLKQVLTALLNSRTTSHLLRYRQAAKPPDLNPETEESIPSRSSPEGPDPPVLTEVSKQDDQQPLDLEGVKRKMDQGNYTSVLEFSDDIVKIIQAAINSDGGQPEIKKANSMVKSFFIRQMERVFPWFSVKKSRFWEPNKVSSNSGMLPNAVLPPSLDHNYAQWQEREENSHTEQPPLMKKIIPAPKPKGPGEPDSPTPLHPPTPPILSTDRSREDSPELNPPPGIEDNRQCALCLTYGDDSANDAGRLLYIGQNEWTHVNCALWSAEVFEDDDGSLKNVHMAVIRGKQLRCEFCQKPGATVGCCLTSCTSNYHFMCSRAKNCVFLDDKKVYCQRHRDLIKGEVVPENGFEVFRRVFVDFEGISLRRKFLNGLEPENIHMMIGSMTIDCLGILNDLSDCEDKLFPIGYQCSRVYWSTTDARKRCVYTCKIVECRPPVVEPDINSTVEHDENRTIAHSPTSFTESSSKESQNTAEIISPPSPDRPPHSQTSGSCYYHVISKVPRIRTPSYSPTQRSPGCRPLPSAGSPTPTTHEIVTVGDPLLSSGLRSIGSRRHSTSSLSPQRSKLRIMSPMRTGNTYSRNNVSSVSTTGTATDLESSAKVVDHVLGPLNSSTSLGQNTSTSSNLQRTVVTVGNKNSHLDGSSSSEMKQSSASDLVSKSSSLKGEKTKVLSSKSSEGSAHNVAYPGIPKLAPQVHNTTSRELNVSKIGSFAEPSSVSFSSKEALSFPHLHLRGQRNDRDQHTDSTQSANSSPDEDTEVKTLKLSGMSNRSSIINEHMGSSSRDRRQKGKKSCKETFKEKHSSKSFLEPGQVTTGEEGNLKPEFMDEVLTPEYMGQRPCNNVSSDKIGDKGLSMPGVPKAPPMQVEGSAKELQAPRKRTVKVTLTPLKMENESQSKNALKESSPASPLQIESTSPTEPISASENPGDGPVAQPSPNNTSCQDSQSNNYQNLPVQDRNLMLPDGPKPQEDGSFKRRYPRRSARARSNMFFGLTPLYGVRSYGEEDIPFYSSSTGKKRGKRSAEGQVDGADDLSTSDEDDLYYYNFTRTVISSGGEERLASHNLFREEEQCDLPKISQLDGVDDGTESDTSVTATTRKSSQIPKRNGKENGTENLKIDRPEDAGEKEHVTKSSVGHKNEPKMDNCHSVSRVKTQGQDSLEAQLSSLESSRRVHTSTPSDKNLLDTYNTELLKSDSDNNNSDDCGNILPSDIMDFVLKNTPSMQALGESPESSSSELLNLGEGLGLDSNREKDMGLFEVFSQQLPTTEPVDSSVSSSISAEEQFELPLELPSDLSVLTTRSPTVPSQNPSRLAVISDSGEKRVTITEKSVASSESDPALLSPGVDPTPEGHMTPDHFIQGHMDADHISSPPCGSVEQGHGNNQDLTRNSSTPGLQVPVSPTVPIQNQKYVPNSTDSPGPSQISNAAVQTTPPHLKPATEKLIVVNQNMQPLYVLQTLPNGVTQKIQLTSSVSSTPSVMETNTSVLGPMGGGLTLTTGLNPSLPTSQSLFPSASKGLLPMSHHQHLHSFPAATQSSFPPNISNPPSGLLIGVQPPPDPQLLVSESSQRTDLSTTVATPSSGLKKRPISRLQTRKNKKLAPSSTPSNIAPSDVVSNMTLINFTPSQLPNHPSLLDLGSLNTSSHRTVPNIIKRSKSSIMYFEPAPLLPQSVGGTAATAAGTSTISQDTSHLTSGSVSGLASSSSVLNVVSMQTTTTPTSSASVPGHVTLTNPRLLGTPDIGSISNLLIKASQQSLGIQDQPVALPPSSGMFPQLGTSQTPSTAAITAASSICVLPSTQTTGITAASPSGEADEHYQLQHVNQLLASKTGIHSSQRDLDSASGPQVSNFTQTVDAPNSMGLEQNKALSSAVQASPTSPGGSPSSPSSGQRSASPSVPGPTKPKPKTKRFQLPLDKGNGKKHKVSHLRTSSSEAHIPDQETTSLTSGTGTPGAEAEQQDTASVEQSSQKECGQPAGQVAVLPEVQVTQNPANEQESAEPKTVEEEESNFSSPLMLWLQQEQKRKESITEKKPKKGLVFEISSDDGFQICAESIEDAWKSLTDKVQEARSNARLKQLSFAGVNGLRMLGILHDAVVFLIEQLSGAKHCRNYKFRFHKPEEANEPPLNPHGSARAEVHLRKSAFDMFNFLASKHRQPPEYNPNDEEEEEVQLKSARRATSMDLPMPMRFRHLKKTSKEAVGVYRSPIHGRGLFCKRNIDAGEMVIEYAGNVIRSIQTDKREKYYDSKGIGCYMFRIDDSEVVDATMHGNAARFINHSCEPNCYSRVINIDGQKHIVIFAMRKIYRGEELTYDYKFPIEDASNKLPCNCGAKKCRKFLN"},
  "source": "PubChem BioAssay AID2662",
  "about": "(National Center for Advancing Translational Sciences (NCATS), 2010)",
  "note": "Out of some 290,000 compounds screened, about 110 (0.038%) were called active. The shares of active, inactive and inconclusive entries below differ from those in the screen. Calls follow the shape of the dose curve; as a rule, active = well fitted inhibition curve with a large enough effect in the polarisation, with a control signal flat (not every such curve was filed as active); inconclusive = small, poorly fitted or top-dose-only effect, or effect the other way, or a change in a side signal; inactive = no such curve, though single readings can be large or run the other way; the % refers to the polarisation. Where the call is inconclusive, the potency comes from a doubtful curve fit. “Side channel” marks fits to a control or component signal instead of the main read-out. Potency is read from the fitted curve at half-maximal effect.",
  "data": [
    {"molecular_target": "Histone-lysine N-methyltransferase 2A (Homo sapiens) (UniProt Q03164)", "experiment": "qHTS Fluorescence Polarization Assay for Inhibitors of MLL CXXC domain - DNA interaction", "conditions": "MLL-CXXC / FITC-HOXA9 DNA fluorescence polarization; activity change, negative = inhibition: at 115 µM (top of the series)", "in_short": "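Steps: dispense CXXC domain solution (7 uM) → pin compounds or unlabeled HOX-A9 DNA control → 5 min ambient → add FLSN-HOX-A9 solution (50 nM) → spin → 30 min ambient → fluorescence polarization. Tris pH 7.5/NaCl/DTT/BSA buffer.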", "values": [
      {"compound": "COc1cc([N+](=O)[O-])ccc1Nc1nc(C)cc(C)n1", "Potency": "inconclusive: 35.5 µM [fluorescent, side channel, single point]"},
      {"compound": "N=C1/C(=C\\c2coc3ccccc3c2=O)C(=O)N=C2SC(c3ccncc3)=NN12", "Potency": "inconclusive: 20 µM [fluorescent, side channel, partial curve]"},
      {"compound": "CC(/C=N/NC(=O)c1n[nH]c2c1CCC2)=C\\c1ccccc1", "activity change, negative = inhibition": "inactive: 6.82%"},
      {"compound": "CC(C)Oc1ccc(C(=O)NCCCNC(=O)c2cccnc2)cc1", "Potency": "inconclusive: 14.1 µM [quencher, side channel, single point]"},
      {"compound": "O=C1N(Cc2cccnc2)C[C@@H]2C[C@@H](c3cccc(Oc4ccccc4)c3)N3CCC[C@@]123", "Potency": "inconclusive: 15.8 µM [inhibitor, single point]"},
      {"compound": "NS(=O)(=O)c1ccc(NC(=S)NC(=O)c2ccco2)cc1", "Potency": "inconclusive: 44.7 µM [inhibitor, single point]"},
      {"compound": "CCS(=O)(=O)c1ccc2c(c1)N(S(=O)(=O)c1cccs1)CC(C(=O)O)O2", "note": "(configuration not stated)", "Potency": "inconclusive: 14.1 µM [fluorescent, side channel, single point]"},
      {"compound": "CCN(CC(=O)Nc1ccccc1C(F)(F)F)C(=O)c1cc(-c2cccs2)nn1-c1ccccc1", "Potency": "inconclusive: 79.4 µM [fluorescent, side channel, single point]"},
      {"compound": "CN1CCN(CCCNC(=O)CCCOc2cc(=O)n(C)c3ccccc23)CC1", "Potency": "inconclusive: 1.41 µM [fluorescent, side channel, full curve, poor fit]"},
      {"compound": "Nn1c(SCc2ccc([N+](=O)[O-])cc2)nc2ccccc2c1=O", "Potency": "inconclusive: 39.8 µM [fluorescent, side channel, partial curve]"},
      {"compound": "O=C1C2CCCN2C(=O)N1CCCCN1CCN(c2cccc(C(F)(F)F)c2)CC1", "note": "(configuration not stated)", "activity change, negative = inhibition": "inactive: -0.642%"},
      {"compound": "CCOC(=O)N1CCC(N2CCN(S(=O)(=O)CC)CC2)CC1", "activity change, negative = inhibition": "inactive: -10.3%"},
      {"compound": "O=C(O)Cc1ccc(N=Nc2c(O)c(C(=O)O)cc3ccccc23)cc1", "Potency": "inconclusive: 17.8 µM [quencher, side channel, full curve, poor fit]"},
      {"compound": "O=S(=O)(NOCc1ccc(Cl)cc1)c1ccc(Cl)cc1", "Potency": "inconclusive: 15.8 µM [inhibitor, single point]"},
      {"compound": "COc1ccc(S(=O)(=O)N(C)c2ccc(C(=O)NCc3ccccn3)cc2)cc1", "Potency": "inconclusive: 31.6 µM [fluorescent, side channel, partial curve]"},
      {"compound": "O=C(Cn1c(=O)oc2ccccc21)NCC1COc2ccccc2O1", "note": "(configuration not stated)", "Potency": "inconclusive: 12.6 µM [quencher, side channel, single point]"},
      {"compound": "CCc1ccc(/C=C2\\SC(=S)N(CCC(=O)N3CCN(C)CC3)C2=O)cc1", "Potency": "inconclusive: 35.5 µM [fluorescent, side channel, partial curve]"},
      {"compound": "COc1cc(/C=N/N=C/c2cc(OC)c(O)c(OC)c2)cc(OC)c1O", "Potency": "inconclusive: 5.62 µM [fluorescent, side channel, full curve]"},
      {"compound": "CC(C)Oc1ccc(C(=O)NC2CCSc3ccccc32)cc1", "note": "(configuration not stated)", "Potency": "inconclusive: 11.2 µM [quencher, side channel, single point]"},
      {"compound": "Cc1cc(NS(=O)(=O)c2ccc(NC(=O)c3cc4c(=O)n5ccccc5nc4s3)cc2)nc(C)n1", "Potency": "inconclusive: 44.7 µM [fluorescent, side channel, partial curve]"},
      {"compound": "O=C(NCC1CCCO1)c1ccc(Cl)c(S(=O)(=O)N2CCCCC2)c1", "note": "(configuration not stated)", "Potency": "inconclusive: 11.2 µM [quencher, side channel, single point]"},
      {"compound": "CCCCSCc1[nH]c(=O)[nH]c1C(=O)CCCCC(=O)OCC", "activity change, negative = inhibition": "inactive: -5.4%"},
      {"compound": "COc1ccc(C2CC(c3ccccc3)=NN2C(=O)COC(=O)COc2ccccc2)cc1", "note": "(configuration not stated)", "Potency": "inconclusive: 50.1 µM [fluorescent, side channel, single point]"},
      {"compound": "CCOC(=O)C(=O)Nc1nc(-c2ccccc2)c(-c2ccccc2)o1", "Potency": "inconclusive: 63.1 µM [inhibitor, single point]"},
      {"compound": "CCCN1C(=O)/C(=C/c2ccncc2)SC1=S", "activity change, negative = inhibition": "inactive: -2.83%"},
      {"compound": "Cc1ccnc2nc(C(=O)Nc3nc4ccccc4s3)nn12", "Potency": "inconclusive: 100 µM [inhibitor, single point]"},
      {"compound": "CN1/C(=C\\C=N\\O)C(C)(C)c2ccccc21", "activity change, negative = inhibition": "inactive: 9.3%"},
      {"compound": "Cc1ccc(-c2ccccc2NC(=O)C2C3C=CC(C3)C2C(=O)O)o1", "note": "(configuration not stated)", "activity change, negative = inhibition": "inactive: -2.97%"},
      {"compound": "CCC(=O)N1CCN(c2ccc(NC(=O)c3c(F)c(F)c(OC)c(F)c3F)cc2)CC1", "Potency": "inconclusive: 14.1 µM [fluorescent, single point]"},
      {"compound": "CC(NC(=O)/C(C#N)=C/c1cn[nH]c1-c1ccccc1)c1ccccc1", "note": "(configuration not stated)", "activity change, negative = inhibition": "inactive: -6.73%"},
      {"compound": "Cc1ccc(N(C(=O)c2snc(C(N)=O)c2N)C(C(=O)NC2CCCC2)c2ccco2)cc1", "note": "(configuration not stated)", "activity change, negative = inhibition": "inactive: 7.37%"},
      {"compound": "Cc1[nH]c2ccccc2c1C(=O)CN1CCCC(C)C1", "note": "(configuration not stated)", "Potency": "inconclusive: 39.8 µM [fluorescent, side channel, single point]"},
      {"compound": "Cc1cccn2c(=O)c(C(=O)NCCCN3CCCCC3C)c(O)nc12", "note": "(configuration not stated)", "activity change, negative = inhibition": "inactive: 1.97%"},
      {"compound": "CC(=O)Oc1ccc2cc(-c3ccccc3)c(=O)oc2c1", "activity change, negative = inhibition": "inactive: 4.7%"},
      {"compound": "C[C@@H]1C=C(C(=O)N2CCOCC2)O[C@H](OCc2ccc(CO)cc2)C1", "Potency": "inconclusive: 35.5 µM [inhibitor, partial curve, poor fit]"},
      {"compound": "O=C1CCCC(O)=C1N=Nc1cccc(C(=O)O)c1", "activity change, negative = inhibition": "inactive: 16.8%"},
      {"compound": "COc1ccc(N)c2c1C(=O)c1ccccc1C2=O", "Potency": "inconclusive: 28.2 µM [quencher, side channel, partial curve]"},
      {"compound": "O=C(COc1ccc(NC(=O)c2ccccc2)cc1)c1ccccc1", "Potency": "inconclusive: 14.1 µM [fluorescent, side channel, single point]"},
      {"compound": "O=C(/C=C/c1ccccc1Cl)Nc1ccc2c(c1)C(=O)NC2=O", "activity change, negative = inhibition": "inactive: 49.1%"},
      {"compound": "C[n+]1c(/C=C/c2ccc3c(c2)OCO3)ccc2ccccc21", "activity change, negative = inhibition": "inactive: 7.68%"},
      {"compound": "COc1ccc2cc(C(=O)N3CCN(Cc4ccc5c(c4)OCO5)CC3)[nH]c2c1", "activity change, negative = inhibition": "inactive: 13.3%"},
      {"compound": "O=C(N/N=C/c1cn(-c2cccs2)nc1-c1ccccc1)c1ccccc1Br", "Potency": "inconclusive: 70.8 µM [fluorescent, side channel, single point]"}
    ]}
  ]
}
